Reference: PubChem BioAssay (EPA / NIEHS)
Inconclusive results, whose numbers are uncertain, are shown with a selection of clear calls. For some assays here: Potencies of inconclusive entries are doubtful fits and often do not repeat. Calls of active or inactive are those of the source. How the source made its calls: active means hit-call score of the fitted dose curve at least 0.9, where 1 is the maximum; inconclusive means response in the unintended direction; inactive means score below 0.9.

Chains of the proteins cited; added tags and fusions are not shown. Lines headed by an entry give the natural chain unless they say otherwise; changes in a name come on top.
UniProt P03372, whole entry, looked up: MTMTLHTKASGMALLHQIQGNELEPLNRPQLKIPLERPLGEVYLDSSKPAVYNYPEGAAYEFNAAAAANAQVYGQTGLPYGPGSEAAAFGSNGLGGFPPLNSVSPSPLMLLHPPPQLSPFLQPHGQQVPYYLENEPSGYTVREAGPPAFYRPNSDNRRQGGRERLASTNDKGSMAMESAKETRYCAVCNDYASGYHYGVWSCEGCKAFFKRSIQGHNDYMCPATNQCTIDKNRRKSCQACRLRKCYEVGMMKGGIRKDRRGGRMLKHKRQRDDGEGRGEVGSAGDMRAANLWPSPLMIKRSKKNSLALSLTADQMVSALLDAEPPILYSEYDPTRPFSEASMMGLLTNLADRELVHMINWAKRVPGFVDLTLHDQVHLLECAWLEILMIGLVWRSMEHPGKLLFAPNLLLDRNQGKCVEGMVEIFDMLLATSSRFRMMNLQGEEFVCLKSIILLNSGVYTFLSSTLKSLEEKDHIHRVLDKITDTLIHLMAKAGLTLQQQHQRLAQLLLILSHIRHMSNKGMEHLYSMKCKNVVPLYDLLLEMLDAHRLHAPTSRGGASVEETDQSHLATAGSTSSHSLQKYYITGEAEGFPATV
UniProt Q96RI1: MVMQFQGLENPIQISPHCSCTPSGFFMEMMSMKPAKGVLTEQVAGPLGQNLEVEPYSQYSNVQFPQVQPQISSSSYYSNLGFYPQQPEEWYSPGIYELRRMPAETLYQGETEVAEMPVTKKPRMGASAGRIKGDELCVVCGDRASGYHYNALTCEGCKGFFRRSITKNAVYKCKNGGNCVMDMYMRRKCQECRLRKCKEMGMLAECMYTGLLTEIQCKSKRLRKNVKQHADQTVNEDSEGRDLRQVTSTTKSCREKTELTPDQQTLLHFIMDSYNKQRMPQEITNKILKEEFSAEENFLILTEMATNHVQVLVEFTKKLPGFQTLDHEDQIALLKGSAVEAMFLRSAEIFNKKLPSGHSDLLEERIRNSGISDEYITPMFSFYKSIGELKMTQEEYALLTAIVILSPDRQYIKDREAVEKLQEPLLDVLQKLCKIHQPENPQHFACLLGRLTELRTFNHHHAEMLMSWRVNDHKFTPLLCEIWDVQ
UniProt Q07869: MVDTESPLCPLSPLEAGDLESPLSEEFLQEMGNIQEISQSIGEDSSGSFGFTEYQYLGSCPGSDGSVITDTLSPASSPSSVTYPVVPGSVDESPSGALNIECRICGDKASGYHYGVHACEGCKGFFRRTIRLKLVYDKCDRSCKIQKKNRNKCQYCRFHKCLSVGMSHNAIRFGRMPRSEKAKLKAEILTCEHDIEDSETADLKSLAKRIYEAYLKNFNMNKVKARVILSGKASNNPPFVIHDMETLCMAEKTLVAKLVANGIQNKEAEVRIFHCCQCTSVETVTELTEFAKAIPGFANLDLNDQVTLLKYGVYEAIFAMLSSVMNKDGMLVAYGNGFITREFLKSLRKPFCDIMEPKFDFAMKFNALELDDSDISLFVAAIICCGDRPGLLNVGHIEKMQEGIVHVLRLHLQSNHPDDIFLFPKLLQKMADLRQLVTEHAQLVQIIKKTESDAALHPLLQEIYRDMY
UniProt P49884, whole entry, looked up: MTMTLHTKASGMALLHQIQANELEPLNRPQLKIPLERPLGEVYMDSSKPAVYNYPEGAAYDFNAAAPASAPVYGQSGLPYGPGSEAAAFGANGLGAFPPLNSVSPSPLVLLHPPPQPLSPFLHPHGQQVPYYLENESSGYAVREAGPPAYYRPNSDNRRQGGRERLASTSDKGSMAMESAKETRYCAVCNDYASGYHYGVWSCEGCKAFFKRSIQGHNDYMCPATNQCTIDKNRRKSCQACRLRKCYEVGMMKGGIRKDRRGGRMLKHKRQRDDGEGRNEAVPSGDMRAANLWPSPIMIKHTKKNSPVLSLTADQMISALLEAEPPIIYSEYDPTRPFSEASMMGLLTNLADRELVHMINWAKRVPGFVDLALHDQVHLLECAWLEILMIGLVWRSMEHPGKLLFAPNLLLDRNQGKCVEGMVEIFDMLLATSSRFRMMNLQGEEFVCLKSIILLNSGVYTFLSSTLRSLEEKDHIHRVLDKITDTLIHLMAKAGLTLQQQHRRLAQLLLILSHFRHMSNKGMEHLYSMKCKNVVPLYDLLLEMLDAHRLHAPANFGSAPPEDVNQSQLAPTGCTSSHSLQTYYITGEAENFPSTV
UniProt Q92731, whole entry, looked up: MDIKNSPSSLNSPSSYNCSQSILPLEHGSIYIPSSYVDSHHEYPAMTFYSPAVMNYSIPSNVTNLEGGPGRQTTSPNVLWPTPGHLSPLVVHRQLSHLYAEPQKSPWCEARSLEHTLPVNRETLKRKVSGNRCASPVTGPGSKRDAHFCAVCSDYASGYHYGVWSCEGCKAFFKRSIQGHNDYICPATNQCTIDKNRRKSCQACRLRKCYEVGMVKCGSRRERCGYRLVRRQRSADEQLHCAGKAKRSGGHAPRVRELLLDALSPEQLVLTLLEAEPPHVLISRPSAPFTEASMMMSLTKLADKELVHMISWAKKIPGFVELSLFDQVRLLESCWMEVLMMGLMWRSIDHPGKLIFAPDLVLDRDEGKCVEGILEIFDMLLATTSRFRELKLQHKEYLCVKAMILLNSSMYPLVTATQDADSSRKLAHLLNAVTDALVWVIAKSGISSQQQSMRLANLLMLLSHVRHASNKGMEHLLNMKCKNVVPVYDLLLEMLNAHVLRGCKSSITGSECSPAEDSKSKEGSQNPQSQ
UniProt O97775: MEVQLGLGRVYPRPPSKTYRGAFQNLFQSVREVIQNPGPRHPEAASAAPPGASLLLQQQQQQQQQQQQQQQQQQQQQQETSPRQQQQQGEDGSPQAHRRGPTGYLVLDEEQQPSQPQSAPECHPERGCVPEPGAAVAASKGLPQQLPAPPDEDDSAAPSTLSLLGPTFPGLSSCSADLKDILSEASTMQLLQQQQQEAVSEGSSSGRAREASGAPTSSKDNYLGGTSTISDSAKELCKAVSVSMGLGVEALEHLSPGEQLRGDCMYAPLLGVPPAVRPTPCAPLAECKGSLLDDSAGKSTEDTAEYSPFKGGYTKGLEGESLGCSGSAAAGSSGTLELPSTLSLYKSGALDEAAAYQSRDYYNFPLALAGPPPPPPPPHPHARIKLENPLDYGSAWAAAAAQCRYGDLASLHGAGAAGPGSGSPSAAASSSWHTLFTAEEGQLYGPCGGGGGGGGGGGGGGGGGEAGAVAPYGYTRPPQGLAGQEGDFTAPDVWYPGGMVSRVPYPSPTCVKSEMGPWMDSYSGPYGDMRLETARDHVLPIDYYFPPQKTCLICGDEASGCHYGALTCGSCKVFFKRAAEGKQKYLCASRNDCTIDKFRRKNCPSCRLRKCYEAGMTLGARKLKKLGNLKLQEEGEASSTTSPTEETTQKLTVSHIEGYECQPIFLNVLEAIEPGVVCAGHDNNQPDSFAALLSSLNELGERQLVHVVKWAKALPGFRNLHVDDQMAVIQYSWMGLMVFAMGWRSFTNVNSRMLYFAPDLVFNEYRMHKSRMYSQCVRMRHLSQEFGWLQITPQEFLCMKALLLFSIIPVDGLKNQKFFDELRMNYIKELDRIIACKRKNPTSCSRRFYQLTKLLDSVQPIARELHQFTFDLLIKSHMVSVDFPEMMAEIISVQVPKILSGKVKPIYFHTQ
UniProt P22199: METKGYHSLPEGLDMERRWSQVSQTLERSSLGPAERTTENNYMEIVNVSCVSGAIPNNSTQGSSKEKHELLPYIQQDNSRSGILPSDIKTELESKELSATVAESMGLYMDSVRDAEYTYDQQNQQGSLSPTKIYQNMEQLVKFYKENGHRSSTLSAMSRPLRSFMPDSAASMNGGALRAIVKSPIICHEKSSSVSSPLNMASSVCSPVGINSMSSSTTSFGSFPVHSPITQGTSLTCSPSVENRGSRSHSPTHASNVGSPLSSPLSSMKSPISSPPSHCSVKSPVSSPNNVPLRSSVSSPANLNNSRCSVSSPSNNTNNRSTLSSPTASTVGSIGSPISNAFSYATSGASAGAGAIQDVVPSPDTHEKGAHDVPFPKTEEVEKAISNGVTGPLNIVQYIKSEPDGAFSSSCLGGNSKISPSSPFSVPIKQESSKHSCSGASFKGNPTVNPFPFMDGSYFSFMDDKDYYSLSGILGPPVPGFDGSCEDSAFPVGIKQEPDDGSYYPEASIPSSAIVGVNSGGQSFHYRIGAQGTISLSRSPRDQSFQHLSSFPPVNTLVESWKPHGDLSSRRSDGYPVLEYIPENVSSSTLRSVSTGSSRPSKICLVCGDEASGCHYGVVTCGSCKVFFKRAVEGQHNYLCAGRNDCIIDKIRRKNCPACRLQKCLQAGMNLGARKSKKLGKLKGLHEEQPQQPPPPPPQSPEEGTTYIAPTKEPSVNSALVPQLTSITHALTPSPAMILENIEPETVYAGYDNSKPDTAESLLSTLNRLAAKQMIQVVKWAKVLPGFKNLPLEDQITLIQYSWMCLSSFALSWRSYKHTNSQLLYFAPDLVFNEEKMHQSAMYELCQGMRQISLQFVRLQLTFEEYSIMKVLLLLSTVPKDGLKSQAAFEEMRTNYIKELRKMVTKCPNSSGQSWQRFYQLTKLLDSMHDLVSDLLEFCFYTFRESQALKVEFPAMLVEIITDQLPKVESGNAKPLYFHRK

Key:
[1] = target: Estrogen receptor (Homo sapiens) (UniProt P03372); experiment: NVS_NR_hER: NovaScreen (NVS) Nuclear Receptor Binding Assay for human Estrogen Receptor (ER) (AID 2283348)
In short: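 MCF7-derived receptor extract, radiolabelled ligand, competitive displacement. Read: scintillation counts at 18 h. DMSO = negative control/baseline. Primary 25 uM duplicate; follow-up concentration–response.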

[2] = target: Bile acid receptor (Homo sapiens) (UniProt Q96RI1); experiment: NVS_NR_hFXR_Agonist: NovaScreen (NVS) Nuclear Receptor Binding Assay for human Farnesoid X Receptor Agonism (FXR) (AID 2283347)
In short: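 Agonist-mode FXR assay read by time-resolved FRET 1 h after compound addition, using isolated human receptor protein without cells. Duplicate 25 uM single-point primary screen, concentration series for confirmed actives; DMSO as baseline.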

[3] = target: human Peroxisome Proliferator-activated Receptor alpha (PPARa), PPARA (gene 5465) (UniProt Q07869); experiment: NVS_NR_hPPARa: NovaScreen (NVS) Nuclear Receptor Binding Assay for human Peroxisome Proliferator-activated Receptor alpha (PPARa) (AID 2283359);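 further: activity means loss of TR-FRET signal versus DMSO baseline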
In short: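 TR-FRET signal measured at 1 h post-dosing; loss-of-signal versus DMSO negative control taken as activity. Extracted gene-protein, cell-free format. Initial single-point duplicates at 25 uM, then concentration-response retests.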

[4] = target: bovine Estrogen Receptor (ER), ESR1 (gene 407238) (UniProt P49884); experiment: NVS_NR_bER: NovaScreen (NVS) Nuclear Receptor Binding Assay for bovine Estrogen Receptor (ER) (AID 2283345);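 further: actives lower the bound radioligand count which means they displace the ER ligand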
In short: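 Displacement of a radioligand from estrogen receptor in bovine uterine membrane preparations; scintillation signal taken at 18 hours, DMSO as baseline. Single-concentration duplicates (25 uM) preceded concentration-response follow-up of actives.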

[5] = target: T1, Estrogen receptor (Homo sapiens) + Estrogen receptor beta (Homo sapiens) (UniProt P03372+Q92731); experiment: OT_ER_ERaERb_0480: Odyssey Thera (OT) 8-hour HEK293T Protein-Complementation Assay for Estrogen Receptor-alpha/-beta Heterodimer (AID 2283352)
In short: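 Fluorescence intensity readout from a protein-fragment complementation reporter in HEK293T; ER-alpha/ER-beta LBD heterodimer. Dosing 8 h. Gain-of-signal fit relative to DMSO negative control; laser scanning cytometry of whole-well cell population.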

[6] = target: chimpanzee Androgen Receptor (AR), AR (gene 747460) (UniProt O97775); experiment: NVS_NR_cAR: NovaScreen (NVS) Nuclear Receptor Binding Assay for chimpanzee Androgen Receptor (AR) (AID 2283346);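 further: radioligand displacement from AR measured by scintillation counting in a cell-free assay; a loss of bound radioligand signal versus DMSO counts as binding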
In short: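 Radioligand binding to chimpanzee AR expressed in Sf9/Sf21 cells, cell-free, measured 72 h after dosing by lysate-based scintillation counting. Loss of signal vs DMSO; initial duplicate screen at 25 uM, actives retested in concentration series.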

[7] = target: T1, Estrogen receptor (Homo sapiens) + Estrogen receptor beta (Homo sapiens); experiment: OT_ER_ERaERb_1440: Odyssey Thera (OT) 24-hour HEK293T Protein-Complementation Assay for Estrogen Receptor-alpha/-beta Homodimer (AID 2283356);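 further: heteromer of ER alpha and ER beta binding domains; hits raise reporter fluorescence and both agonists and antagonists give an increase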
In short: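 Readout: mean fluorescence intensity in nucleus (agonists) or nucleus plus cytoplasm (antagonists), read by laser scanning cytometer after 24 h compound exposure of HEK293T cells carrying ERα/ERβ LBD fragment-complementation constructs; DMSO baseline.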

[8] = target: Estrogen receptor beta (Homo sapiens) (UniProt Q92731); experiment: OT_ER_ERbERb_0480: Odyssey Thera (OT) 8-hour HEK293T Protein-Complementation Assay for Estrogen Receptor-beta/-beta Homodimer (AID 2283357);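 further: active means signal gain over DMSO baseline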
In short: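 Homodimerization of ER-beta LBD measured by protein-fragment complementation in HEK293T; 8 h dosing; fixed, Draq5 counterstain; fluorescence intensity gain over DMSO baseline, positive fitting direction; laser scanning cytometry.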

[9] = target: rat Mineralocorticoid Receptor (MR), Nr3c2 (gene 25672) (UniProt P22199); experiment: NVS_NR_rMR: NovaScreen (NVS) Nuclear Receptor Binding Assay for rat Mineralocorticoid Receptor (MR) (AID 2283355)
In short: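 Radioligand displacement, scintillation readout; tissue source adrenalectomized rat brain supernatant. Read 24 h post-dose. Screened in duplicate at 25 uM, DMSO negative control, controls on every plate; actives re-run in concentration series.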

SMILES: CCOC(=O)N1CCC(=C2c3ccc(Cl)cc3CCc3cccnc32)CC1
- AC50 [1]: active: 0.0259 µM

SMILES: Nc1ccc2cc(S(=O)(=O)O)cc(O)c2c1N=Nc1ccccc1C(F)(F)F
- AC50 [2]: inconclusive: 25 µM
- AC50 [3]: active: 0.155 µM

SMILES: C[Si](C)(C)N[Si](C)(C)C
- outcome [4]: inactive
- AC50 [5]: inconclusive: 50 µM

SMILES: C=CC(=O)OCC(CO)(COCC(COC(=O)C=C)(COC(=O)C=C)COC(=O)C=C)COC(=O)C=C
- outcome [1]: inactive

SMILES: O=C1CCCCCN1
- AC50 [6]: inconclusive: 25 µM

SMILES: Cc1cc2nc3c(=O)[nH]c(=O)nc-3n(C[C@H](O)[C@H](O)[C@H](O)CO)c2cc1C
- AC50 [2]: inconclusive: 6.34 µM

SMILES: COc1ccc(C(Cl)=C(c2ccc(OC)cc2)c2ccc(OC)cc2)cc1
- AC50 [1]: active: 7.49 µM

SMILES: CCCCCCOC(=O)CCCCC(=O)OCCCCCC
- AC50 [6]: inconclusive: 25 µM

SMILES: CCCCC(CC)COC(=O)CCCCC(=O)OCC(CC)CCCC (stereo not drawn)
- AC50 [4]: inconclusive: 0.314 µM
- AC50 [3]: inconclusive: 25 µM

SMILES: O=C(O)c1cc(O)c2ccccc2c1O
- AC50 [2]: inconclusive: 25 µM
- AC50 [1]: inconclusive: 0.00123 µM
- AC50 [5]: inconclusive: 50 µM
- AC50 [7]: inconclusive: 88.1 µM
- AC50 [8]: inconclusive: 50 µM

SMILES: CCCc1c(OCCCOc2ccc(OCC(=O)O)cc2)ccc(C(C)=O)c1O
- AC50 [1]: inconclusive: 0.228 µM

SMILES: CCN(CC)c1ccc2c(C)cc(=O)oc2c1
- AC50 [1]: inconclusive: 44 µM

SMILES: C1CCC(SSC2CCCCC2)CC1
- AC50 [1]: inconclusive: 25 µM

SMILES: Cc1c(O)cccc1O
- AC50 [1]: inconclusive: 0.757 µM

SMILES: CC(C)(c1cc(Br)c(OCCO)c(Br)c1)c1cc(Br)c(OCCO)c(Br)c1
- AC50 [4]: inconclusive: 20.2 µM
- outcome [9]: inactive
